Results are given in words; binding and its absence hold for the method and conditions named.

In test [1] the target is T1, AtCOI1 (Arabidopsis thaliana) (UniProt O04197).
T1 sequence: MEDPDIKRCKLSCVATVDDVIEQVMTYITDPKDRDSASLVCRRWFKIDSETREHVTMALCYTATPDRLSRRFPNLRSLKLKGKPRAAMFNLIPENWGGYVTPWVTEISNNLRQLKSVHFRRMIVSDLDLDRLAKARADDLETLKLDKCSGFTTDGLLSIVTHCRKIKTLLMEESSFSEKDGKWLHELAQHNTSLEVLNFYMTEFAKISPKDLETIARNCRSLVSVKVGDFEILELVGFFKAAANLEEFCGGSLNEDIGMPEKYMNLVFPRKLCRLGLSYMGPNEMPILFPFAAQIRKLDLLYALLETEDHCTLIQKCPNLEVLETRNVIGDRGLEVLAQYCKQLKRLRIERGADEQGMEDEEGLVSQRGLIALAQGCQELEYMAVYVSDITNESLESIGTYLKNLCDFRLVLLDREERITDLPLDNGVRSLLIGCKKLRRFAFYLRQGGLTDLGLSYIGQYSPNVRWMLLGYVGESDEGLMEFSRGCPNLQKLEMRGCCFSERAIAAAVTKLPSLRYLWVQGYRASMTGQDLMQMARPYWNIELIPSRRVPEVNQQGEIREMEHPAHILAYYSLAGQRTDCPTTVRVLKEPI
In words: two-hybrid; yeast AH109; McJAZ as prey (pGADT7, AD), McCOI1a or AtCOI1 as bait (pGBKT7, BD); selection medium SD/-Leu/-Trp/-His/-Ade (QDO) containing 35 μM coronatine (COR); 30 °C, 4 days.

Test [2] deals with T1, AtCOI1 (Arabidopsis thaliana). In words: two-hybrid; yeast AH109; McJAZ as prey (pGADT7, AD), McCOI1a or AtCOI1 as bait (pGBKT7, BD); selection medium SD/-Leu/-Trp/-His/-Ade (QDO) plus methanol, without coronatine; 30 °C, 4 days.

Regarding McJAZ1 (Mentha canadensis), the binding entry in test [1] and in test [2] was “no binding” in each case.
Turning to McJAZ2 (Mentha canadensis), the binding entry in test [1] and in test [2] was “no binding” in each case.
As to McJAZ3 (Mentha canadensis), the binding entry in test [1] and in test [2] was “no binding” in each case.
For the substance McJAZ4 (Mentha canadensis), the binding entry in test [1] and in test [2] was “no binding” in each case.
On to McJAZ5 (Mentha canadensis), for which the binding result in test [1] and in test [2] was “no binding” in each case.
With McJAZ6 (Mentha canadensis), the binding entry in test [1] and in test [2] was “no binding” each time.
Regarding McJAZ7 (Mentha canadensis), the binding result in test [1] and in test [2] was “no binding” each time.
